Drawing on article PMC5399192, this text covers binding for one molecule.

Chains of the proteins cited; added tags and fusions are not shown.
UniProt P38532: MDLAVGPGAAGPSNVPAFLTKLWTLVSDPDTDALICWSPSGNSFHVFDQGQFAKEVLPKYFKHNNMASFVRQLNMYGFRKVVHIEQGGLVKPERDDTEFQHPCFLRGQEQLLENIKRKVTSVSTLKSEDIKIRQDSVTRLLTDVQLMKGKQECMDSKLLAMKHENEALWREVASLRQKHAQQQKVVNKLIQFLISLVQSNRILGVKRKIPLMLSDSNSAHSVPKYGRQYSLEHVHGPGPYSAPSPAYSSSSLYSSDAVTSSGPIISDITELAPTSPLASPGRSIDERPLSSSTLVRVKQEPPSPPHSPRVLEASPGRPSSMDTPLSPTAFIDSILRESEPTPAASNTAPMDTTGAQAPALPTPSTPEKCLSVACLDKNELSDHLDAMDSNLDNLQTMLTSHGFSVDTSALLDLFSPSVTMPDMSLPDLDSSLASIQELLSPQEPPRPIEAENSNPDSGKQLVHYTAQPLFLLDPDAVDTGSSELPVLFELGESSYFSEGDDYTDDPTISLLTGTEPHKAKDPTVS

Results are given in words; binding and its absence hold for the method and conditions named. In cells and extracts the contact can be indirect. Some entries that bind do so weakly or less than the wild type.

This assay concerns the target heat shock factor 1 (mouse (endogenous in immortalized mouse fibroblasts differentiated to brown adipocytes)) (UniProt P38532). Description: co-IP; lysates from differentiated WT and PGC1α-null brown adipocytes; immunoprecipitated with anti-HSF1 antibody (rabbit IgG as control), Catch and Release v2.0 system; blotted with anti-PGC1α and anti-HSF1; cells with or without heat shock at 42 °C for 1 h and 1 h recovery.

B1: Peroxisome proliferator-activated receptor γ coactivator 1α (protein, UniProt O70343 1-797)
chain: MAWDMCSQDSVWSDIECAALVGEDQPLCPDLPELDLSELDVNDLDTDSFLGGLKWCSDQSEIISNQYNNEPANIFEKIDEENEANLLAVLTETLDSLPVDEDGLPSFDALTDGAVTTDNEASPSSMPDGTPPPQEAEEPSLLKKLLLAPANTQLSYNECSGLSTQNHAANHTHRIRTNPAIVKTENSWSNKAKSICQQQKPQRRPCSELLKYLTTNDDPPHTKPTENRNSSRDKCASKKKSHTQPQSQHAQAKPTTLSLPLTPESPNDPKGSPFENKTIERTLSVELSGTAGLTPPTTPPHKANQDNPFKASPKLKPSCKTVVPPPTKRARYSECSGTQGSHSTKKGPEQSELYAQLSKSSGLSRGHEERKTKRPSLRLFGDHDYCQSLNSKTDILINISQELQDSRQLDFKDASCDWQGHICSSTDSGQCYLRETLEASKQVSPCSTRKQLQDQEIRAELNKHFGHPCQAVFDDKSDKTSELRDGDFSNEQFSKLPVFINSGLAMDGLFDDSEDESDKLSYPWDGTQPYSLFDVSPSCSSFNSPCRDSVSPPKSLFSQRPQRMRSRSRSFSRHRSCSRSPYSRSRSRSPGSRSSSRSCYYYESSHYRHRTHRNSPLYVRSRSRSPYSRRPRYDSYEAYEHERLKRDEYRKEHEKRESERAKQRERQKQKAIEERRVIYVGKIRPDTTRTELRDRFEVFGEIEECTVNLRDDGDSYGFITYRYTCDAFAALENGYTLRRSNETDFELYFCGRKQFFKSNYADLDTNSDDFDPASTKSKYDSLDFDSLLKEAQRSLRR
With B1, the binding result is given as “binds”.
